For at least one compound, name, drawing or mass did not settle the structure.
Assays:
Assay type in all cases: in vivo, male C57BL/6JRj mice
[1] = system: DIO-NASH mice; experiment: Liver Galectin-3 IHC quantified by morphometry; conditions: % fractional area multiplied with liver weight, at termination, mean of n=12-14
Procedure: (§1) Protein markers of fibrosis (Col1a1), fibrogenesis (α-SMA) and inflammation (Gal-3) were assessed by immunohistochemistry. α-SMA and collagen type I increase in regulation of quiescent hepatic stellate cell activation into myofibroblast-like cells where activated hepatic stellate cells are the main collagen producing cells in the liver (Carpino et al 2005, Hou and Syn 2018) whereas Gal-3 is involved in mediating inflammatory response and considered as a macrophage activation marker (Sciacchitano et al, 2018). For morphometric quantification of liver Col1a1 (using antibody from Southern Biotech, Cat. #1310-01), alpha-smooth muscle actin (α-SMA; using antibody from Abcam, Cat. #Ab124964) and Galectin-3 (using antibody from Biolegend, Cat. #125402), IHC staining was performed using standard procedures. […] For all IHC stains, the primary antibody was detected using a polymeric HRP-linker antibody conjugate and visualized using DAB as chromogen. […]
(§2) Quantitative assessment of immunoreactivity is evaluated as follows. IHC-positive staining is quantified by image analysis using the Visiomorph software (Visiopharm, Denmark). […] The quantitative estimate of IHC-positive staining is calculated as an area fraction (AF) according to the following formula:
Terminal liver Galectin-3 was quantified by morphometry. Relative terminal liver Galectin-3 (% fractional area) is expressed as mean of n=12-14+SEM. […]

[2] = system: DIO-NASH mice; experiment: 4 h fasted blood glucose; conditions: group mean, CHS-131 High dose (alone or combined)
[3] = system: DIO-NASH mice; experiment: EchoMRI body composition (MRI body weight, fat, lean and free water mass); conditions: CHS-131 High 30 mg/kg, empagliflozin 10 mg/kg, elafibranor 30 mg/kg PO, liraglutide 0.4 mg/kg SC, QD, group mean
Procedure: The body composition of the mice was assessed by an EchoMRI 3-1 Body composition analyzer (EchoMRI, US). Non-anaesthetised mice was placed in a plastic tube inside the MRI scanner for approximately 80 seconds. The body composition is expressed as fat mass, fat free mass (lean mass) and water.

[4] = system: DIO-NASH mice; experiment: Intraperitoneal insulin tolerance test (IPITT), week 10; parameters: unit not given here; conditions: 6 h fasted, i.p. insulin 0.5 U/kg, group mean, CHS-131 High dose (alone or combined)
Procedure: Mice were fasted 6 hours prior to intraperitoneal insulin administration (0.5 Unit/kg, rapid acting insulin NovoRapid). At the various time points after insulin administration, blood samples were collected into heparinized glass capillary tubes and immediately suspended in glucose/lactate system solution buffer (EKF-diagnostics, Germany). Blood glucose (BG) was measured using a BIOSEN c-Line glucose meter (EKF-diagnostics, Germany) according to the manufacturer's instructions. After the last blood sample, the animals were returned to the normal feeding schedule. The order of the animals was randomized before the procedure and mice were dosed with compounds just after the −60 minutes blood sample.
Intraperitoneal insulin tolerance test (IPITT) in week 10. Left: Temporal course of blood glucose levels during 6 h fasted IPITT. Intraperitoneal insulin bolus (0.5 U/kg) at t=0 min.
Area under the curve calculated from the temporal course from 0-180 min PITT Values expressed as mean of n=12-14+SEM.

[5] = system: DIO-NASH mice; experiment: Liver steatosis (liver lipid) quantified by morphometry on HE slides; conditions: terminal; group mean; CHS-131 High dose (alone or combined)
Procedure: For Hematoxylin & Eosin (HE) staining, slides were incubated in Mayer's Hematoxylin, washed in tap water, stained in Eosin Y solution, […], mounted with Pertex and allowed to dry before scanning.
Quantitative assessment of steatosis is evaluated as follows. Steatosis is quantified on H&E stained slides by image analysis using the Visiomorph software (Visiopharm, Denmark). Visiomorph protocols are designed to analyze the virtual slides in two steps: 1. Crude detection of tissue at low magnification (1× objective). 2. Detection of steatosis (pink) and tissue (blue) at high magnification (20× objective). The quantitative estimate of steatosis is calculated as an area fraction (AF) according to the following formula:
Terminal liver steatosis (i.e. liver lipid) was quantified by morphometry. Relative liver steatosis is denoted in % fractional area. Values expressed as mean of n=12-14+SEM.
Total liver steatosis is denoted in milligrams (% fractional area multiplied with liver weight). Values expressed as mean of n=12-14+SEM.

[6] = system: DIO-NASH mice; experiment: Plasma alanine transaminase (ALT) at termination; conditions: group mean, CHS-131 High dose (alone or combined)
Procedure: For plasma biochemistry, tail blood was drawn directly through the capillary of a Microvette/Vacuette of the right dimension and anticoagulant and mixed by inversion 5 times. Blood was placed at 4° C. until centrifugation at 3000×g for 10 minutes at 4° C. The plasma supernatants were transferred to new tubes and immediately frozen on dry ice and stored at −80° C. until analysis.
Mouse insulin was measured in single determinations using the MSD platform (Meso Scale Diagnostics).
Plasma alanine transaminase (ALT) at termination (U/L). Values expressed as mean of n=11-14+SEM.

[7] = system: DIO-NASH mice; experiment: Liver α-SMA IHC quantified by morphometry; conditions: group mean, CHS-131 High dose (alone or combined)
Procedure: as §1, §2
Terminal liver α-SMA was quantified by morphometry. Relative terminal liver α-SMA (% fractional area) is expressed as mean of n=12-14+SEM. […]

CCCCCCCCCCCCCCCC(=O)N[C@@H](CCC(=O)NCCCC[C@H](NC(=O)[C@H](C)NC(=O)[C@H](C)NC(=O)[C@H](CCC(N)=O)NC(=O)CNC(=O)[C@H](CCC(=O)O)NC(=O)[C@H](CC(C)C)NC(=O)[C@H](Cc1ccc(O)cc1)NC(=O)[C@H](CO)NC(=O)[C@H](CO)NC(=O)[C@@H](NC(=O)[C@H](CC(=O)O)NC(=O)[C@H](CO)NC(=O)[C@@H](NC(=O)[C@H](Cc1ccccc1)NC(=O)[C@@H](NC(=O)CNC(=O)[C@H](CCC(=O)O)NC(=O)[C@H](C)NC(=O)[C@@H](N)Cc1cnc[nH]1)[C@@H](C)O)[C@@H](C)O)C(C)C)C(=O)N[C@@H](CCC(=O)O)C(=O)N[C@@H](Cc1ccccc1)C(=O)N[C@H](C(=O)N[C@@H](C)C(=O)N[C@@H](Cc1c[nH]c2ccccc12)C(=O)N[C@@H](CC(C)C)C(=O)N[C@H](C(=O)N[C@@H](CCCNC(=N)N)C(=O)NCC(=O)N[C@@H](CCCNC(=N)N)C(=O)NCC(=O)O)C(C)C)[C@@H](C)CC)C(=O)O [Liraglutide, reference compound]
Total terminal liver Galectin-3 (Average) [1]: 34.5 milligrams
Delta 4 h fasted blood glucose week 12 vs baseline [2]: -1.28 mmol/L
Absolute fat tissue mass at week 11 [3]: 4.92 g
MRI body weight at week 11 [3]: 35.3 g
Area under the curve 0-180 min IPITT (blood glucose) [4]: 728
Total liver steatosis (% fractional area multiplied with liver weight) [5]: 278 milligrams
Plasma alanine transaminase (ALT) at termination [6]: 47.8 U/L
Total terminal α-SMA (% fractional area multiplied with liver weight) [7]: 32.5 milligrams

Reference: patent US20220143003A1, “COMPOSITIONS AND METHODS TO TREAT NON-ALCOHOLIC FATTY LIVER DISEASES (NAFLD)” (Coherus Biosciences, Inc., priority 2018, published 2022)
